The values below come from paper PMC8316469.

Sequences of proteins named here, by UniProt entry; tags and fusion partners are left off. A change or cut given only in a name is not applied to a line headed by its entry. Residues count along the entry.
UniProt Q9EP73, residues 19-290: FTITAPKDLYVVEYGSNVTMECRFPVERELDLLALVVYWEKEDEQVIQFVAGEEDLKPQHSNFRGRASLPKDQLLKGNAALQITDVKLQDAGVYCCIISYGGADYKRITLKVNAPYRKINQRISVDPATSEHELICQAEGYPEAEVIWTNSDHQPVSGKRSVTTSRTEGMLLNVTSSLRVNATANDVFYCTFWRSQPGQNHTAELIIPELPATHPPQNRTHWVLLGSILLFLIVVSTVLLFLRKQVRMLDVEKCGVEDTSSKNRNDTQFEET
UniProt Q9NZQ7: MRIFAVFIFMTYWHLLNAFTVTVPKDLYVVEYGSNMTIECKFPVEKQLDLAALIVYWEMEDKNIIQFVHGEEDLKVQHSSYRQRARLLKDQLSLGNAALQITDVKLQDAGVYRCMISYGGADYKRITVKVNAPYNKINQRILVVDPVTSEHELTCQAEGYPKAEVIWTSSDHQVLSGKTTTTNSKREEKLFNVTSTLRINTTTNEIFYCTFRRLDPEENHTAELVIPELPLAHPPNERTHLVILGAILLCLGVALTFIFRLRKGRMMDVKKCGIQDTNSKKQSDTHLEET
programmed cell death 1 ligand 1 (PD-L1), human, endogenous (human (endogenous in SW1990 and CFPAC-1)): residues 19-290 of Q9NZQ7

The target in assay [1] is programmed cell death 1 ligand 1 (PD-L1), mouse, endogenous (mouse (endogenous in KPC)) (UniProt Q9EP73). The assay can be described thus: proximity ligation; Duo-link assay in KPC cells with anti-NEK2 and anti-PD-L1 as primary antibodies; confocal microscopy.
Assay [2] shares this target. As to the kind of experiment: co-IP; endogenous proteins; cleared lysates of SW1990, KPC and CFPAC-1 cells in IP/Western lysis buffer with phosphatase and protease inhibitors; primary antibody 4-6 h, protein A or G Dynabeads 2-4 h at 4 °C; Western blot. A general note: A western blot detects proteins with antibodies after separation by electrophoresis.
In assay [3] the target is programmed cell death 1 ligand 1 (PD-L1), human, endogenous (human (endogenous in SW1990 and CFPAC-1)) (UniProt Q9NZQ7). The assay is described as above.
Assay [4] addresses GST-PD-L1 (commercial recombinant PD-L1/GST) (human) (UniProt Q9NZQ7). As to the kind of experiment: pull-down; GST-PD-L1 (or GST) on glutathione beads, NEK2-His as prey; Pierce GST Protein Interaction Pull-Down Kit; commercial recombinant proteins; both purified.

These are yes or no findings as the source states them, for the method shown. For some of these results: In cells and extracts the contact can be indirect. Some binding calls cover weakened binding; strength is not graded here. For some of these results: Where a sequence is shown, tags or fusion partners need not be part of it.

B1: never in mitosis gene A-related kinase 2 (NEK2), mouse, endogenous (protein, UniProt O35942 1-443)
chain: MPSRVEDYEVLHSIGTGSYGRCQKIRRKSDGKILVWKELDYGSMTEVEKQMLVSEVNLLRELKHPNIVSYYDRIIDRTNTTLYIVMEYCEGGDLASVISKGTKDRQYLEEEFVLRVMTQLTLALKECHRRSDGGHTVLHRDLKPANVFLDSKHNVKLGDFGLARILNHDTSFAKTFVGTPYYMSPEQMSCLSYNEKSDIWSLGCLLYELCALMPPFTAFNQKELAGKIREGRFRRIPYRYSDGLNDLITRMLNLKDYHRPSVEEILESPLIADLVAEEQRRNLERRGRRSGEPSKLPDSSPVLSELKLKERQLQDREQALRAREDILEQKERELCIRERLAEDKLARAESLMKNYSLLKEHRLLCLAGGPELDLPSSAMKKKVHFHGESKENTARSENSESYLAKSKCRDLKKRLHAAQLRAQALADIEKNYQLKSRQILGMR
Take B1: the binding entry in assay [1] and in assay [2] was “binds” throughout.

B2: never in mitosis gene A-related kinase 2 (NEK2), human, endogenous (protein, UniProt P51955 1-445)
chain: MPSRAEDYEVLYTIGTGSYGRCQKIRRKSDGKILVWKELDYGSMTEAEKQMLVSEVNLLRELKHPNIVRYYDRIIDRTNTTLYIVMEYCEGGDLASVITKGTKERQYLDEEFVLRVMTQLTLALKECHRRSDGGHTVLHRDLKPANVFLDGKQNVKLGDFGLARILNHDTSFAKTFVGTPYYMSPEQMNRMSYNEKSDIWSLGCLLYELCALMPPFTAFSQKELAGKIREGKFRRIPYRYSDELNEIITRMLNLKDYHRPSVEEILENPLIADLVADEQRRNLERRGRQLGEPEKSQDSSPVLSELKLKEIQLQERERALKAREERLEQKEQELCVRERLAEDKLARAENLLKNYSLLKERKFLSLASNPELLNLPSSVIKKKVHFSGESKENIMRSENSESQLTSKSKCKDLKKRLHAAQLRAQALSDIEKNYQLKSRQILGMR
Consider B2, for which, in assay [3], the binding result is “binds”.

B3: NEK2-His (commercial recombinant) (protein, UniProt P51955 1-445)
chain: B2 chain
On to B3, for which the binding result in assay [4] is “binds”.
